Measured values as given in PubChem BioAssay AID248 (DTP/NCI, 2004).
The list shows only some results of the screen, not a fair sample: it gathers tests that were run many times, whatever their T/C, doses with no T/C, and many T/C values between a quarter and a half above the control. Further doses and runs are listed elsewhere. T/C is the treated group as % of the vehicle group. Some doses have a count of surviving animals in place of a T/C: the source holds a T/C of zero for them, seemingly a mark for toxic or unscored doses. Some doses without a T/C left all or most animals alive at the check, yet need not have been tolerated: survival well below the control is almost never listed, so the zero probably covers shortened survival too. Counts of survivors are from the toxicity check (mostly the fifth day) where no day follows; animals may have died later. Schedule codes are those of the source, taken here to give the interval after Q, in days (D) or hours (H), and the number of doses after X. Some doses were run more than once; the values are given in rising order. Where survival is the endpoint, this PubChem deposit counts one and a half times the control or more as active, and values a quarter to a half above the control carry no call in these data; other NCI protocols may use other cut-offs. Some schedules carry Z or #; the key to these is not given. Some T/C values are followed by the survivors on the day toxicity was checked, most often the fifth; without a count, all were alive then.

Tested on: L1210 leukemia ip in BDF1 mice, survival T/C
Assay: NCI In Vivo Anticancer Drug Screen. Data for tumor model L1210 Leukemia (intraperitoneal) in B6D2F1 (BDF1) mice
Details: T/C endpoint: mean survival time, higher T/C = longer survival
[1] = dose: 30.0 mg/kg/injection, schedule: Q01DX009 (ip), vehicle: Klucel (hydroxypropylcellulose) (HPC)
[2] = dose: 100.0 mg/kg/injection, schedule: Q04DX003 (ip), vehicle: Klucel (hydroxypropylcellulose) (HPC)
[3] = dose: 200.0 mg/kg/injection, schedule: Q04DX003 (ip), vehicle: Klucel (hydroxypropylcellulose) (HPC)
[4] = dose: 400.0 mg/kg/injection, schedule: Q04DX003 (ip), vehicle: Klucel (hydroxypropylcellulose) (HPC)
[5] = dose: 300.0 mg/kg/injection, schedule: Q01DX001 (ip), vehicle: other
[6] = dose: 400.0 mg/kg/injection, schedule: Q01DX001 (ip), vehicle: saline
[7] = dose: 200.0 mg/kg/injection, schedule: Q01DX001 (ip), vehicle: saline with Tween-80

COc1cc(C=Nc2ccc(-n3ccnc3C)cc2)ccc1N(CCCl)CCCl
T/C (dose: 3.8 mg/kg/injection, schedule: Q04DX003 (ip), vehicle: Klucel (hydroxypropylcellulose) (HPC)): 131 % of control
T/C (dose: 4.0 mg/kg/injection, schedule: Q01DX009 (ip), vehicle: Klucel (hydroxypropylcellulose) (HPC)): 125 % of control
T/C (dose: 5.8 mg/kg/injection, schedule: Q04DX003 (ip), vehicle: Klucel (hydroxypropylcellulose) (HPC)): 129 % of control [5 of 6 alive]
T/C (dose: 8.8 mg/kg/injection, schedule: Q01DX009 (ip), vehicle: Klucel (hydroxypropylcellulose) (HPC)): 148 % of control
T/C (dose: 10.0 mg/kg/injection, schedule: Q01DX009 (ip), vehicle: Klucel (hydroxypropylcellulose) (HPC)): 144 % of control
T/C (dose: 13.3 mg/kg/injection, schedule: Q01DX009 (ip), vehicle: Klucel (hydroxypropylcellulose) (HPC)): 128 % of control [5 of 6 alive]
T/C (dose: 13.3 mg/kg/injection, schedule: Q04DX003 (ip), vehicle: Klucel (hydroxypropylcellulose) (HPC)): 131 and 137 % of control
survivor count (dose: 20.0 mg/kg/injection, schedule: Q01DX009 (ip), vehicle: Klucel (hydroxypropylcellulose) (HPC)): 6 of 6
T/C (dose: 20.0 mg/kg/injection, schedule: Q04DX003 (ip), vehicle: Klucel (hydroxypropylcellulose) (HPC)): 130, 131, 135 % of control
T/C [1]: 127 % of control
survivor count [1]: 2 of 6
survivor count (dose: 40.0 mg/kg/injection, schedule: Q04DX003 (ip), vehicle: Klucel (hydroxypropylcellulose) (HPC)): 3 of 6
survivor count (dose: 45.0 mg/kg/injection, schedule: Q04DX003 (ip), vehicle: Klucel (hydroxypropylcellulose) (HPC)): 1 of 6
survivor count (dose: 70.0 mg/kg/injection, schedule: Q04DX003 (ip), vehicle: Klucel (hydroxypropylcellulose) (HPC)): 0 of 6
survivor count (dose: 80.0 mg/kg/injection, schedule: Q04DX003 (ip), vehicle: Klucel (hydroxypropylcellulose) (HPC)): 0 of 6
survivor count [2]: 2 of 6
survivor count [3]: 0 of 6
survivor count [4]: 0 of 6

COc1cc2c(cc1O)C(Cc1ccc(OC)c(OC)c1)N(C)CC2 (stereo not given)
survivor count [5]: 0 of 6

CCCC#CCCCN1CCC2(CC1)C(=O)NCN2c1ccccc1
survivor count [3]: 0 of 6
survivor count [4]: 0 of 6

O=C(CCl)Nc1ccc(N=Nc2ccccc2)cc1
survivor count (dose: 100.0 mg/kg/injection, schedule: Q01DX009 (ip), vehicle: Klucel (hydroxypropylcellulose) (HPC)): 3 of 6
survivor count (dose: 200.0 mg/kg/injection, schedule: Q01DX009 (ip), vehicle: Klucel (hydroxypropylcellulose) (HPC)): 2 of 6
survivor count (dose: 400.0 mg/kg/injection, schedule: Q01DX009 (ip), vehicle: Klucel (hydroxypropylcellulose) (HPC)): 0 of 6

CCC1(O)CC2CN(CCc3c([nH]c4ccccc34)C(C(=O)OC)(c3cc4c(cc3OC)N(C)C3C(O)(C(=O)NCCSSCCNC(=O)C5(O)C(O)C6(CC)C=CCN7CCC8(c9cc(C%10(C(=O)OC)CC%11CN(CCc%12c%10[nH]c%10ccccc%12%10)CC(O)(CC)C%11)c(OC)cc9N(C)C58)C76)C(O)C5(CC)C=CCN6CCC43C65)C2)C1 (stereo not given)
T/C (dose: 389.0 micrograms/kg/injection, schedule: Q04DX003 (ip), vehicle: saline): 129 % of control
T/C (dose: 648.0 micrograms/kg/injection, schedule: Q04DX003 (ip), vehicle: saline): 133 % of control
T/C (dose: 1080.0 micrograms/kg/injection, schedule: Q04DX003 (ip), vehicle: saline): 135 % of control
survivor count (dose: 5000.0 micrograms/kg/injection, schedule: Q04DX003 (ip), vehicle: saline): 5 of 8

CC(C)N=Cc1ccccc1O.CC(C)N=Cc1ccccc1O.[Cu]
survivor count (dose: 150.0 mg/kg/injection, schedule: Q01DX001 (ip), vehicle: other): 2 of 6
survivor count [5]: 0 of 6

CC(C)NP(=O)(NC(C)C)OC1CC(C)(C)N(O)C(C)(C)C1
survivor count (dose: 100.0 mg/kg/injection, schedule: Q01DX001 (ip), vehicle: water): 1 of 3
survivor count (dose: 200.0 mg/kg/injection, schedule: Q01DX001 (ip), vehicle: water): 0 of 3

CCCCCCCCCCCCP(=O)(O)O
survivor count [5]: 0 of 6

CCc1cc2c(cc1C(=O)CCN1CCCC1)C(C)(C)CCC2(C)C
survivor count (dose: 200.0 mg/kg/injection, schedule: Q04DX002 (ip), vehicle: saline with Tween-80): 1 of 3
survivor count (dose: 400.0 mg/kg/injection, schedule: Q04DX002 (ip), vehicle: saline with Tween-80): 0 of 3

CC1CN1P(=O)(N1CC1C)N1CC1C.CC1CN1P(=O)(N1CC1C)N1CC1C.CC1CN1P(=O)(N1CC1C)N1CC1C.CC1CN1P(=O)(N1CC1C)N1CC1C.[Cu+2].[O-][Cl+3]([O-])([O-])O (stereo not given)
survivor count (dose: 200.0 mg/kg/injection, schedule: Q04DX002 (ip), vehicle: saline): 0 of 3
survivor count (dose: 400.0 mg/kg/injection, schedule: Q04DX002 (ip), vehicle: saline): 0 of 3

CC(C)OC(=O)Nc1ccc(C(F)(F)F)cc1
survivor count (dose: 200.0 mg/kg/injection, schedule: Q04DX002 (ip), vehicle: Klucel (hydroxypropylcellulose) (HPC)): 3 of 3

O=C1C=CC(=O)C(c2ccccc2)=C1
survivor count (dose: 50.0 mg/kg/injection, schedule: Q01DX001 (ip), vehicle: saline): 3 of 6
survivor count (dose: 100.0 mg/kg/injection, schedule: Q01DX001 (ip), vehicle: saline): 1 of 6
survivor count (dose: 200.0 mg/kg/injection, schedule: Q01DX001 (ip), vehicle: saline): 1 of 6
survivor count [6]: 1 of 6

NC(=O)NC1CC(c2ccccc2)C(O)(c2ccccc2)C1 (stereo not given)
survivor count [6]: 4 of 4

CCN(CC)CC(=O)NC(CCN(C)C)(c1cccc2ccccc12)C(C)C (stereo not given)
survivor count (dose: 400.0 mg/kg/injection, schedule: Q04DX003 (ip), vehicle: saline): 0 of 6

CC1(C)OC(CI)C(COS(C)(=O)=O)O1 (stereo not given)
T/C (dose: 173.0 mg/kg/injection, schedule: Q01DX001 (ip), vehicle: steroid suspending solution): 132 % of control [5 of 6 alive]
survivor count (dose: 266.0 mg/kg/injection, schedule: Q01DX001 (ip), vehicle: steroid suspending solution): 6 of 6
survivor count (dose: 400.0 mg/kg/injection, schedule: Q01DX001 (ip), vehicle: steroid suspending solution): 5 of 6
survivor count (dose: 600.0 mg/kg/injection, schedule: Q01DX001 (ip), vehicle: steroid suspending solution): 4 of 6

Nc1nc(N)c(-c2cccc(Cl)c2)c(CBr)n1
survivor count (dose: 100.0 mg/kg/injection, schedule: Q01DX009 (ip), vehicle: saline): 3 of 6
survivor count (dose: 200.0 mg/kg/injection, schedule: Q01DX009 (ip), vehicle: saline): 1 of 6
survivor count (dose: 400.0 mg/kg/injection, schedule: Q01DX009 (ip), vehicle: saline): 0 of 6

CCC[CH2][Sn]([Cl])([CH2]Cl)[CH2]CCC
survivor count (dose: 100.0 mg/kg/injection, schedule: Q01DX001 (ip), vehicle: saline with Tween-80): 0 of 6
survivor count [7]: 0 of 6
survivor count (dose: 400.0 mg/kg/injection, schedule: Q01DX001 (ip), vehicle: saline with Tween-80): 0 of 6

Cc1ccc2[nH]c(=O)cc(C)c2c1
survivor count (dose: 200.0 mg/kg/injection, schedule: Q01DX001 (ip), vehicle: carboxymethylcellulose (CMC)): 0 of 6
survivor count (dose: 400.0 mg/kg/injection, schedule: Q01DX001 (ip), vehicle: carboxymethylcellulose (CMC)): 0 of 6

Nc1cc(C(=O)Nc2ccc(C3=NCCN3)cc2)cc(C(=O)Nc2ccc(C3=NCCN3)cc2)c1
T/C (dose: 16.0 mg/kg/injection, schedule: Q01DX010 (sc), vehicle: saline): 131 % of control
T/C (dose: 32.0 mg/kg/injection, schedule: Q01DX Z (ip), vehicle: saline): 144 % of control

CC1C[N+](C)=C(c2ccc(O)cc2)S1 (stereo not given)
survivor count [7]: 0 of 3

Cn1c(=O)c2c(nc(C3CC3)n2C)n(C)c1=O
survivor count (dose: 400.0 mg/kg/injection, schedule: Q01DX001 (ip), vehicle: other): 1 of 4

Cc1cccc(C[P+](C/C=C/c2ccccc2)(c2ccccc2)c2ccccc2)c1
survivor count (dose: 25.0 mg/kg/injection, schedule: Q04DX003 (ip), vehicle: Klucel (hydroxypropylcellulose) (HPC)): 6 of 6
survivor count (dose: 50.0 mg/kg/injection, schedule: Q04DX003 (ip), vehicle: Klucel (hydroxypropylcellulose) (HPC)): 0 of 6 and 1 of 6
survivor count [2]: 0 of 6
survivor count [3]: 0 of 6
survivor count [4]: 0 of 6
